The record followed here is paper PMC5376188.

The chains behind the UniProt entries cited, without tags or fusion partners. Where a name states a change or a piece, a line headed by the entry shows the natural chain unless it says otherwise.
UniProt Q00944: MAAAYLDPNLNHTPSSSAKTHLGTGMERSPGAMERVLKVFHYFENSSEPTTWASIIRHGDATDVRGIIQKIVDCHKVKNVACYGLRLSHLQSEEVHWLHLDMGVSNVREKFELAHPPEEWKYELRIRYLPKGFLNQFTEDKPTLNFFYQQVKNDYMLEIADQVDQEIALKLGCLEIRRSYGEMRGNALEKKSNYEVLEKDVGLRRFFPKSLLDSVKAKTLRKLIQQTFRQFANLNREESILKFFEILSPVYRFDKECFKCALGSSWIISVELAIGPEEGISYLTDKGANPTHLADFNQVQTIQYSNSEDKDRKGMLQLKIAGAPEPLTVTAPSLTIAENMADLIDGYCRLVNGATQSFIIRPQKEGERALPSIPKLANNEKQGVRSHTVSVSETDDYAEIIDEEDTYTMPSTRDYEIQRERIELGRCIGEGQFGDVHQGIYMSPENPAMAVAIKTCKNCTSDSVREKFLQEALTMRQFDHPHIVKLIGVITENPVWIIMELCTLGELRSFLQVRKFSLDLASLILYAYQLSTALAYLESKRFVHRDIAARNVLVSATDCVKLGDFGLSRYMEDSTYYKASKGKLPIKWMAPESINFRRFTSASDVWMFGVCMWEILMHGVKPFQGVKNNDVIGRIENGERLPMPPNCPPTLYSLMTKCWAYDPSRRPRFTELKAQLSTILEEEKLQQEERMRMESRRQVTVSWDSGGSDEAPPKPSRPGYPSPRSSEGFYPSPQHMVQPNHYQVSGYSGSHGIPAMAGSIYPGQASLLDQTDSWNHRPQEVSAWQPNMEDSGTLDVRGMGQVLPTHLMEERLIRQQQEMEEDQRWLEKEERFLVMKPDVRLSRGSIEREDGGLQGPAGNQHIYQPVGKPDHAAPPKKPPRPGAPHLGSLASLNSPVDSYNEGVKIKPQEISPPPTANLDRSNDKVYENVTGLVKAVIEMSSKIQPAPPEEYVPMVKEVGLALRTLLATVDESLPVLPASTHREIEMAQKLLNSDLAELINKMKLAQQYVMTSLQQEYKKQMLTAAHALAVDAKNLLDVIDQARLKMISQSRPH
UniProt O08788: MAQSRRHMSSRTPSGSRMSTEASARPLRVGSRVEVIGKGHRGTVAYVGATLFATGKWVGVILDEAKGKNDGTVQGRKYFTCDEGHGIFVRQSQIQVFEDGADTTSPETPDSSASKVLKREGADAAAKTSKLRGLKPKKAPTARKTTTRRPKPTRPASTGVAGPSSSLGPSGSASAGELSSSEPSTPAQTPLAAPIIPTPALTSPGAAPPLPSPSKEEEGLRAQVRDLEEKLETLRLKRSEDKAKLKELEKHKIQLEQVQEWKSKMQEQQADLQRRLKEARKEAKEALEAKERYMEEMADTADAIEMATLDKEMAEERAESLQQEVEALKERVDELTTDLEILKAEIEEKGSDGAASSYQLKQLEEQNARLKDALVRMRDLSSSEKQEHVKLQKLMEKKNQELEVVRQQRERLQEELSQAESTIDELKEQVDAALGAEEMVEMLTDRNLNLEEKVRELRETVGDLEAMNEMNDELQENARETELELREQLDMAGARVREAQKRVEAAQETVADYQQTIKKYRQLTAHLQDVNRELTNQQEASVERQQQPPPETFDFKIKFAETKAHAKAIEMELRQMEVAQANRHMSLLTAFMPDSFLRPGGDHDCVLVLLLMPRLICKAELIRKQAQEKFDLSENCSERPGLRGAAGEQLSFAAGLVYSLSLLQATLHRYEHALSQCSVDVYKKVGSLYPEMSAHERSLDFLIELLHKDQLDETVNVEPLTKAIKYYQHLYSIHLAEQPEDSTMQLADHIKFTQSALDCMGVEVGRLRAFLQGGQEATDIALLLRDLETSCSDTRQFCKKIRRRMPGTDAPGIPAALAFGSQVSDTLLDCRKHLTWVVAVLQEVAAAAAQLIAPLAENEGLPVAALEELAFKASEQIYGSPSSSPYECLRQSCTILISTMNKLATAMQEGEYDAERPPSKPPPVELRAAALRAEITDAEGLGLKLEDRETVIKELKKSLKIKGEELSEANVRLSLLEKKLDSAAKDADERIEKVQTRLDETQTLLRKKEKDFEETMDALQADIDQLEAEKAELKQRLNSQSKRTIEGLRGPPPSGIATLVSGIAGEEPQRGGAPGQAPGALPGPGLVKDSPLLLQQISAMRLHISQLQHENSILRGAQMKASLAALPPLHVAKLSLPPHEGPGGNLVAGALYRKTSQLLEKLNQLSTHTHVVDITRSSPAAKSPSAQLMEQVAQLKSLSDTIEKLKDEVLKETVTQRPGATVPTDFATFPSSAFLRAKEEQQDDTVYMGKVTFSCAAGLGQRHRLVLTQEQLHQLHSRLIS
UniProt Q9CQW9: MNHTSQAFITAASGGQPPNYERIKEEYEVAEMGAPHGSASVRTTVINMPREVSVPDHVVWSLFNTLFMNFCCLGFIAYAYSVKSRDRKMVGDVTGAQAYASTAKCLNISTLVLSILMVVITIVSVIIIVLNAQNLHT

No constants are given. Whether binding was seen depends on the method and setting. Binding seen in cells or lysates may run through a third protein. Some binding calls cover weakened binding; strength is not graded here.

Test [1] deals with T1, Ambra1 (activating molecule in Beclin1-regulated autophagy) (mouse (endogenous in SCC cells and MEFs)) (UniProt A2AH22).
T1 sequence: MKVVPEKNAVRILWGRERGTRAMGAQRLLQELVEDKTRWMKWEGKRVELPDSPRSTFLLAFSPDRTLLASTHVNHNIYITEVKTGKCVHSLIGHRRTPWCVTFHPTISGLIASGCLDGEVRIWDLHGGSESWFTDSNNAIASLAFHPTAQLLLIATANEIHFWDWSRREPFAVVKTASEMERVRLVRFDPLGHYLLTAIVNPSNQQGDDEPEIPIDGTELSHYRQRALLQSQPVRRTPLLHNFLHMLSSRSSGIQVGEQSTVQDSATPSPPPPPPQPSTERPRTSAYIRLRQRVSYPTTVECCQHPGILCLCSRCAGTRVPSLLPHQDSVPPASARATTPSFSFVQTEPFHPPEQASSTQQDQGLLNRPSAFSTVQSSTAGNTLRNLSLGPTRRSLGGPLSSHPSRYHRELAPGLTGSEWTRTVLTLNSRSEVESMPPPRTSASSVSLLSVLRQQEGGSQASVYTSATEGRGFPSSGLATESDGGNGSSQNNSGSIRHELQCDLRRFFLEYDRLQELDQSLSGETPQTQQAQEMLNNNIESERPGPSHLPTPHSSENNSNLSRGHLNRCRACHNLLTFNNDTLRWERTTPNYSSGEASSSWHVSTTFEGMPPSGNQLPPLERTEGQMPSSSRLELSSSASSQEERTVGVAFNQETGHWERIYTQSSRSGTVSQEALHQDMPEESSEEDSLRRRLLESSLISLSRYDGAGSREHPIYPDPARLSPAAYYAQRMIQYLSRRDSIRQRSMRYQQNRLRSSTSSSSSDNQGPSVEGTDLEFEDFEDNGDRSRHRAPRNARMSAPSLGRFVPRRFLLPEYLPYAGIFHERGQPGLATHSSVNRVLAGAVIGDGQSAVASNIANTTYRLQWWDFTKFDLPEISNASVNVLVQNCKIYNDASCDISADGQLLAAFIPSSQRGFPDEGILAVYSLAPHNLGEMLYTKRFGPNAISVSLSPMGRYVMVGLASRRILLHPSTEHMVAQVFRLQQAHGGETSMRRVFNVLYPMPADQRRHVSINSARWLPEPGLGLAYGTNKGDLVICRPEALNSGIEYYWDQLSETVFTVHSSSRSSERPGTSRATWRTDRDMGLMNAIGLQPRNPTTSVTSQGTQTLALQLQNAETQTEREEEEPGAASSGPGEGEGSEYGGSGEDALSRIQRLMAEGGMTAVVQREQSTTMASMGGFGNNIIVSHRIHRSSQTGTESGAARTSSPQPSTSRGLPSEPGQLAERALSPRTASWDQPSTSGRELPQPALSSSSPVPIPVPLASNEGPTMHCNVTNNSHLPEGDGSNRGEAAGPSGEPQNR
Put plainly: co-IP; 1 mg lysate (RIPA buffer) of SCC FAK-WT, FAK P875A/P881A or FAK -/- cells, or of Ambra1 +/+ and -/- MEFs, with antibody or antibody-agarose at 4°C overnight; beads washed three times in lysis buffer and once in 0.6 M LiCl; western blot; in some experiments after IFITM3 siRNA. On the technique in general: In western blotting, separated proteins are transferred to a membrane and probed.

The target in test [2] is focal adhesion kinase (FAK), wild type, in SCC FAK-WT cells (UniProt Q00944). The test is described as above.

Take “Dynactin 1 (Dctn1; also known as p150Glued) (from UniProt O08788 1-1281)”: the binding entry in test [1] was “binds”. Same read-out and setting: next, “FAK P875A/P881A (AA) mutant (from UniProt Q00944 1-1053) (enzyme)”: “binds”; “focal adhesion kinase (FAK), wild type, in SCC FAK-WT cells (from UniProt Q00944 1-1053) (enzyme)”: “binds”. For “interferon-induced transmembrane protein 3 (IFITM3) (from UniProt Q9CQW9 1-137)”, the binding result in test [1] and in test [2] was “binds” throughout.
